# Reference: the supplement of paper PMC8728848
# The list shows a part of the results.
# B1: ArathEULS3 TAP (Arabidopsis thaliana) (protein)
# chain: IDENLYFQGGSMDEKTTGWRGGHVVEGLAGELEQLRARLEHHPQGQREPGGGGSLEITSLYKKAGFMEHHHQHHRHHQRDDGEDDRQSFGVPPPHVDAPPQPHGLYQSQPHFDPYAPTPQAPAPYRSETQFEPHAPPPYRSEPYFETPAPPPSFGHVSHVGHQSPNESYPPEHHRYGGYQQPSNSLLESHGDHSGVTHVAHHSSNQPQSSSGVYHKPDENRLPDNLAGLAGRATVKVYSKAEPNYNLTIRDGKVILAPADPSDEAQHWYKDEKYSTKVKDADGHPCFALVNKATGEAMKHSVGATHPVHLIRYVPDKLDESVLWTESKDFGDGYRTIRMVNNTRLNVDAYHGDSKSGGVRDGTTIVLWDWNKGDNQLWKIFPF
# Tests used:
# Experiment in all cases: glycan array binding signal (z-score within array); higher = stronger binding
# Settings in all cases: glycan notation: IUPAC condensed, linker removed
# [1] = target: Gal(b1-3)GlcNAc(b1-3)Gal(b1-4)GlcNAc(b1-2)[Gal(b1-3)GlcNAc(b1-3)Gal(b1-4)GlcNAc(b1-6)]Man(a1-6)[Gal(b1-3)GlcNAc(b1-3)Gal(b1-4)GlcNAc(b1-2)Man(a1-3)]Man(b1-4)GlcNAc(b1-4)[Fuc(a1-6)]GlcNAc
# Summary of the method: (§1)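 The binding signal is a Z-score computed within each array and averaged over linkers. Arrays of the same protein sequence at different concentrations or buffers were also averaged together. Data originate from 3228 arrays in the Consortium for Functional Glycomics database, kept only where the protein sequence was available.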
# [2] = target: Gal(b1-3)GlcNAc(b1-3)Gal(b1-4)GlcNAc(b1-3)Gal(b1-4)GlcNAc(b1-2)[Gal(b1-3)GlcNAc(b1-3)Gal(b1-4)GlcNAc(b1-3)Gal(b1-4)GlcNAc(b1-6)]Man(a1-6)[Gal(b1-3)GlcNAc(b1-3)Gal(b1-4)GlcNAc(b1-3)Gal(b1-4)GlcNAc(b1-2)Man(a1-3)]Man(b1-4)GlcNAc(b1-4)[Fuc(a1-6)]GlcNAc
# Summary of the method: as §1
# [3] = target: Gal(b1-3)GlcNAc(b1-3)Gal(b1-4)GlcNAc(b1-6)[Gal(b1-3)GlcNAc(b1-3)]Gal(b1-4)Glc
# Summary of the method: as §1
# [4] = target: Gal(b1-3)GlcNAc(b1-3)Gal(b1-4)[Fuc(a1-3)]GlcNAc
# Summary of the method: as §1
# [5] = target: Gal(b1-3)GlcNAc(b1-3)Gal(b1-4)[Fuc(a1-3)]GlcNAc(b1-6)[Gal(b1-3)GlcNAc(b1-3)]Gal(b1-4)Glc
# Summary of the method: as §1
# [6] = target: Gal(b1-3)GlcNAc(b1-3)GalNAc
# Summary of the method: as §1
# [7] = target: Gal(b1-3)GlcNAc(b1-6)Gal(b1-4)GlcNAc
# Summary of the method: as §1
# [8] = target: Gal(b1-3)GlcNAc(b1-6)GalNAc
# Summary of the method: as §1
# [9] = target: Gal(b1-3)GlcNAc(b1-6)[Gal(b1-3)]GalNAc
# Summary of the method: as §1
# Gal(b1-3)GlcNAc6S = target: Gal(b1-3)GlcNAc6S
# Summary of the method: as §1
# [10] = target: Gal(b1-3)[Fuc(a1-4)]GlcNAc
# Summary of the method: as §1
# [11] = target: Gal(b1-3)[Fuc(a1-4)]GlcNAc(b1-2)Man
# Summary of the method: as §1
# [12] = target: Gal(b1-3)[Fuc(a1-4)]GlcNAc(b1-2)Man(a1-3)[Gal(b1-3)[Fuc(a1-4)]GlcNAc(b1-2)Man(a1-6)]Man(b1-4)GlcNAc(b1-4)[Fuc(a1-6)]GlcNAc
# Summary of the method: as §1
# [13] = target: Gal(b1-3)[Fuc(a1-4)]GlcNAc(b1-3)Gal(b1-3)[Fuc(a1-4)]GlcNAc
# Summary of the method: as §1
# [14] = target: Gal(b1-3)[Fuc(a1-4)]GlcNAc(b1-3)Gal(b1-4)[Fuc(a1-3)]GlcNAc
# Summary of the method: as §1
# [15] = target: Gal(b1-3)[Fuc(a1-4)]GlcNAc(b1-6)GalNAc
# Summary of the method: as §1
# [16] = target: Gal(b1-3)[GlcNAc(b1-6)]GalNAc
# Summary of the method: as §1
# [17] = target: Gal(b1-3)[Neu5Ac(a2-6)]GalNAc
# Summary of the method: as §1
# [18] = target: Gal(b1-3)[Neu5Ac(a2-6)]GlcNAc(b1-4)Gal(b1-4)Glc
# Summary of the method: as §1
# [19] = target: Gal(b1-3)[Neu5Ac(b2-6)]GalNAc
# Summary of the method: as §1
# Gal(b1-4)Gal = target: Gal(b1-4)Gal
# Summary of the method: as §1
# [20] = target: Gal(b1-4)GalNAc(a1-3)[Fuc(a1-2)]Gal(b1-4)GlcNAc
# Summary of the method: as §1
# [21] = target: Gal(b1-4)GalNAc(b1-3)[Fuc(a1-2)]Gal(b1-4)GlcNAc
# Summary of the method: as §1
# Gal(b1-4)Glc = target: Gal(b1-4)Glc
# Summary of the method: as §1
# Gal(b1-4)Glc6S = target: Gal(b1-4)Glc6S
# Summary of the method: as §1
# Gal(b1-4)GlcNAc = target: Gal(b1-4)GlcNAc
# Summary of the method: as §1
# [22] = target: Gal(b1-4)GlcNAc(a1-6)Gal(b1-4)GlcNAc
# Summary of the method: as §1
# Gal(b1-4)GlcNAc(b1-2)Man = target: Gal(b1-4)GlcNAc(b1-2)Man
# Summary of the method: as §1
# [23] = target: Gal(b1-4)GlcNAc(b1-2)Man(a1-3)Man(b1-4)GlcNAc(b1-4)GlcNAc
# Summary of the method: as §1
# [24] = target: Gal(b1-4)GlcNAc(b1-2)Man(a1-3)[Gal(b1-4)GlcNAc(b1-2)Man(a1-6)]Man(b1-4)GlcNAc(b1-4)GlcNAc
# Summary of the method: as §1
# [25] = target: Gal(b1-4)GlcNAc(b1-2)Man(a1-3)[Gal(b1-4)GlcNAc(b1-2)Man(a1-6)]Man(b1-4)GlcNAc(b1-4)[Fuc(a1-6)]GlcNAc
# Summary of the method: as §1
# [26] = target: Gal(b1-4)GlcNAc(b1-2)Man(a1-3)[Gal(b1-4)GlcNAc(b1-2)Man(a1-6)][Gal(b1-4)GlcNAc(b1-4)]Man(b1-4)GlcNAc(b1-4)[Fuc(a1-6)]GlcNAc
# Summary of the method: as §1
# [27] = target: Gal(b1-4)GlcNAc(b1-2)Man(a1-3)[Gal(b1-4)GlcNAc(b1-2)Man(a1-6)][GlcNAc(b1-4)]Man(b1-4)GlcNAc(b1-4)[Fuc(a1-6)]GlcNAc
# Summary of the method: as §1
# [28] = target: Gal(b1-4)GlcNAc(b1-2)Man(a1-3)[GlcNAc(b1-2)Man(a1-6)]Man(b1-4)GlcNAc(b1-4)GlcNAc
# Summary of the method: as §1
# [29] = target: Gal(b1-4)GlcNAc(b1-2)Man(a1-3)[GlcNAc(b1-4)][Gal(b1-4)GlcNAc(b1-2)Man(a1-6)]Man(b1-4)GlcNAc(b1-4)GlcNAc
# Summary of the method: as §1
# [30] = target: Gal(b1-4)GlcNAc(b1-2)Man(a1-3)[Man(a1-6)]Man(b1-4)GlcNAc(b1-4)GlcNAc
# Summary of the method: as §1
# [31] = target: Gal(b1-4)GlcNAc(b1-2)Man(a1-6)Man(b1-4)GlcNAc(b1-4)GlcNAc
# Summary of the method: as §1
# [32] = target: Gal(b1-4)GlcNAc(b1-2)Man(a1-6)[GlcNAc(b1-2)Man(a1-3)]Man(b1-4)GlcNAc(b1-4)GlcNAc
# Summary of the method: as §1
binder,measurement,setting,value
B1,glycan array binding signal (z-score),[1],0.246
same,glycan array binding signal (z-score),[2],0.305
same,glycan array binding signal (z-score),[3],1.84
same,glycan array binding signal (z-score),[4],0.039
same,glycan array binding signal (z-score),[5],-0.934
same,glycan array binding signal (z-score),[6],-1.54
same,glycan array binding signal (z-score),[7],-1.14
same,glycan array binding signal (z-score),[8],-1.34
same,glycan array binding signal (z-score),[9],-0.73
same,glycan array binding signal (z-score),Gal(b1-3)GlcNAc6S,1.55
same,glycan array binding signal (z-score),[10],-0.187
same,glycan array binding signal (z-score),[11],-0.027
same,glycan array binding signal (z-score),[12],-0.44
same,glycan array binding signal (z-score),[13],-0.335
same,glycan array binding signal (z-score),[14],0.049
same,glycan array binding signal (z-score),[15],-0.667
same,glycan array binding signal (z-score),[16],0.386
same,glycan array binding signal (z-score),[17],-0.111
same,glycan array binding signal (z-score),[18],-0.335
same,glycan array binding signal (z-score),[19],-0.468
same,glycan array binding signal (z-score),Gal(b1-4)Gal,-0.966
same,glycan array binding signal (z-score),[20],-0.431
same,glycan array binding signal (z-score),[21],1.97
same,glycan array binding signal (z-score),Gal(b1-4)Glc,-0.775
same,glycan array binding signal (z-score),Gal(b1-4)Glc6S,-0.531
same,glycan array binding signal (z-score),Gal(b1-4)GlcNAc,-0.414
same,glycan array binding signal (z-score),[22],-0.212
same,glycan array binding signal (z-score),Gal(b1-4)GlcNAc(b1-2)Man,0.74
same,glycan array binding signal (z-score),[23],-0.313
same,glycan array binding signal (z-score),[24],-0.791
same,glycan array binding signal (z-score),[25],0.949
same,glycan array binding signal (z-score),[26],-0.179
same,glycan array binding signal (z-score),[27],1.54
same,glycan array binding signal (z-score),[28],-2.08
same,glycan array binding signal (z-score),[29],-0.43
same,glycan array binding signal (z-score),[30],0.249
same,glycan array binding signal (z-score),[31],1.23
same,glycan array binding signal (z-score),[32],-0.574

# Taken from the listing (two entries):
binder,measurement,setting,value
B1,glycan array binding signal (z-score),[31],1.23
same,glycan array binding signal (z-score),[32],-0.574
